# Cleaved PARP after 72 h of treatment

Data from the primary screen of doi:10.1371/journal.pone.0140310, rounded.

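The test systems are human melanoma cell lines, treated with a pair of drugs for 72 h and then stained and imaged. Values are the share of nuclei positive for cleaved PARP as a percentage of the same share in the DMSO control: 100 is the control level, higher means more apoptosis. Concentrations were fixed for each drug; these are the higher of two levels. The file gives one value for each pair and line, without errors, so small differences may be noise. The marker varies much from line to line, for technical or biological reasons.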
An unselected part of the screen is shown.
An entry leaves out what has no value listed here.

Every entry is a combination with CP-690550 at 5000 nM: C[C@@H]1CCN(C(=O)CC#N)C[C@@H]1N(C)c1ncnc2[nH]ccc12

Drug key:
vismodegib (5000 nM): CS(=O)(=O)c1ccc(C(=O)Nc2ccc(Cl)c(-c3ccccn3)c2)c(Cl)c1
GW2580 (5000 nM): COc1ccc(COc2ccc(Cc3cnc(N)nc3N)cc2OC)cc1
enzastaurin (4000 nM): Cn1cc(C2=C(c3cn(C4CCN(Cc5ccccn5)CC4)c4ccccc34)C(=O)NC2=O)c2ccccc21
gemcitabine (2 nM): Nc1ccn([C@@H]2O[C@H](CO)[C@@H](O)C2(F)F)c(=O)n1
dasatinib (20 nM): Cc1nc(Nc2ncc(C(=O)Nc3c(C)cccc3Cl)s2)cc(N2CCN(CCO)CC2)n1
ruxolitinib (5000 nM): N#CC[C@H](C1CCCC1)n1cc(-c2ncnc3[nH]ccc23)cn1
BI-78D3 (1000 nM): O=c1[nH]nc(Sc2ncc([N+](=O)[O-])s2)n1-c1ccc2c(c1)OCCO2

Second drug: enzastaurin
C32: 68.3
MEL-HO: 66.6
A101D: 255
IPC-298: 204
LB2518-MEL: 151
LOX IMVI: 101
WM115: 35.3
UACC-62: 108
SK-MEL-28: 592
UACC-257: 88.5
COLO 792: 142
COLO 829: 125
A2058: 151
WM1745: 115
MZ2-MEL: 79.0
COLO 800: 126
WM3526: 123
WM451Lu: 194
SK-MEL-2: 420
G-361: 72.5
SK-MEL-30: 52.6
IST-MEL1: 83.4
WM3619: 64.8
MeWo: 145
WM1716: 164
SK-MEL-5: 30.0
RVH-421: 85.1
RPMI-7951: 191

Second drug: vismodegib
C32: 105
MEL-HO: 137
A101D: 73.3
IPC-298: 139
LB2518-MEL: 185
LOX IMVI: 44.6
WM115: 127
UACC-62: 98.3
SK-MEL-28: 54.8
UACC-257: 112
COLO 792: 58.4
COLO 829: 99.7
A2058: 119
WM1745: 92.1
MZ2-MEL: 105
COLO 800: 117
WM3526: 55.7
WM451Lu: 53.4
SK-MEL-2: 94.4
G-361: 114
SK-MEL-30: 78.9
IST-MEL1: 64.4
WM3619: 98.7
MeWo: 78.5
WM1716: 101
SK-MEL-5: 56.8
RVH-421: 194
RPMI-7951: 116

Second drug: gemcitabine
C32: 130
MEL-HO: 130
A101D: 113
IPC-298: 235
LB2518-MEL: 63.3
LOX IMVI: 134
WM115: 79.3
UACC-62: 95.5
SK-MEL-28: 36.7
UACC-257: 61.3
COLO 792: 175
COLO 829: 284
A2058: 115
WM1745: 152
MZ2-MEL: 156
COLO 800: 130
WM3526: 93.9
WM451Lu: 34.2
SK-MEL-2: 87.0
G-361: 341
SK-MEL-30: 67.5
IST-MEL1: 198
WM3619: 198
MeWo: 133
WM1716: 57.4
SK-MEL-5: 104
RVH-421: 2120
RPMI-7951: 65.0

Second drug: GW2580
C32: 99.8
MEL-HO: 41.0
A101D: 51.9
IPC-298: 40.6
LB2518-MEL: 90.9
LOX IMVI: 101
WM115: 69.4
UACC-62: 58.8
SK-MEL-28: 159
UACC-257: 76.2
501mel: 167
COLO 792: 52.4
COLO 829: 39.7
A375: 92.8
A2058: 136
WM1745: 120
MZ2-MEL: 64.6
COLO 800: 195
WM3526: 152
WM451Lu: 186
SK-MEL-2: 114
G-361: 31.4
SK-MEL-30: 108
IST-MEL1: 111
WM3619: 143
MeWo: 178
WM1716: 40.0
SK-MEL-5: 291
RVH-421: 159
RPMI-7951: 45.9

Second drug: BI-78D3
C32: 39.9
MEL-HO: 66.5
A101D: 97.2
IPC-298: 74.5
LB2518-MEL: 107
LOX IMVI: 119
WM115: 120
UACC-62: 111
SK-MEL-28: 132
UACC-257: 43.1
COLO 792: 129
COLO 829: 72.5
A2058: 145
WM1745: 80.5
MZ2-MEL: 153
COLO 800: 157
WM3526: 80.5
WM451Lu: 85.8
SK-MEL-2: 141
G-361: 87.9
SK-MEL-30: 318
IST-MEL1: 58.1
WM3619: 112
MeWo: 21.5
WM1716: 135
SK-MEL-5: 191
RVH-421: 107
RPMI-7951: 90.1

Second drug: ruxolitinib
C32: 58.4
MEL-HO: 73.4
A101D: 162
IPC-298: 32.4
LB2518-MEL: 128
LOX IMVI: 127
WM115: 40.9
UACC-62: 46.9
SK-MEL-28: 21.8
UACC-257: 37.7
COLO 792: 131
COLO 829: 71.1
A2058: 116
WM1745: 102
MZ2-MEL: 205
COLO 800: 65.6
WM3526: 43.6
WM451Lu: 93.4
SK-MEL-2: 59.3
G-361: 150
SK-MEL-30: 74.3
IST-MEL1: 129
WM3619: 82.5
MeWo: 110
WM1716: 125
SK-MEL-5: 212
RVH-421: 142
RPMI-7951: 119

Second drug: dasatinib
C32: 108
MEL-HO: 281
A101D: 265
IPC-298: 92.3
LB2518-MEL: 79.7
LOX IMVI: 739
WM115: 221
UACC-62: 127
SK-MEL-28: 82.7
UACC-257: 77.0
COLO 792: 396
COLO 829: 304
A2058: 152
WM1745: 202
MZ2-MEL: 286
COLO 800: 190
WM3526: 144
WM451Lu: 46.9
SK-MEL-2: 163
G-361: 171
SK-MEL-30: 91.2
IST-MEL1: 247
WM3619: 71.6
MeWo: 52.7
WM1716: 301
SK-MEL-5: 75.7
RVH-421: 74.6
RPMI-7951: 155